The values below come from PubChem BioAssay AID686978 (National Center for Advancing Translational Sciences (NCATS), 2013).

Molecules are shown by their SMILES. The entries are a selection whose mix differs from that of the whole data set. Results filed as inconclusive are left out. Activity calls are given as the source filed them. The call rests on the fitted dose curve; in most records, active means well fitted inhibition curve with a large enough effect; inconclusive means small, poorly fitted or top-dose-only effect; inactive means flat fitted curve, though single readings scatter.
Potency means the concentration at half of the fitted maximal effect.

This assay can be described thus: qHTS for Inhibitors of human tyrosyl-DNA phosphodiesterase 1 (TDP1): qHTS in cells in absence of CPT. Further: nearly all actives have a fitted effect of over 55% in size. As to conditions: DT40 Tdp1-/- hTDP1 cells, no CPT, ATP luminescence, 48 h. An excerpt:
Human tyrosyl-DNA phosphodiesterase 1 (TDP1) is a novel repair gene, and we propose to use it as a new target for anticancer drug development. TDP1 is not an essential protein, but under treatment with topoisomerase I poison (camptothecin: CPT), TDP1 works as a critical factor for cell survival. To directly identify novel TDP1 inhibitors active in a cellular environment, we have knocked-out the Tdp1 gene in chicken DT40 cells (Tdp1-/-) and generated a complemented counterpart cells that contains a stable transfection of the human TDP1 gene (Tdp1-/-;hTDP1 cells). For the primary screen, Tdp1-/-;hTDP1 cells will be exposed to small molecules in the presence or absence of CPT, and their growth kinetics will be evaluated after 48 hours by measuring ATP activity. […] The hit compounds will then be evaluated in the presence or absence of CPT using Tdp1-/- cells. […] In tertiary assays, biochemical gel-based assays will be used to assess whether the hit compounds specifically target TDP1.
To this end, we have screened this cell line against the MLSMR in two primary screens. In one screen we add CPT and in the other we screen in the absence of CPT; this AID represents the screen where CPT was absent.
NIH Chemical Genomics Center [NCGC]
NIH Molecular Libraries Probe Centers Network [MLPCN]
Assay Submitter (PI): Yves Pommier, NCI
DT40-hTDP1 cells without 20 nM Camptothecin (add 20 microL of DMSO in 1 L of cell culture medium) were dispensed at 400 cells/5microL/well in tissue culture treated 1536-well white wall/solid bottom assay plates (Greiner Bio-One North America, NC, U.S.A.) using a Multidrop Combi 8 channel dispenser (Thermo Fisher, Waltham, MA, USA). 23 nL compounds and controls were transferred using the pin tool (Kalypsys, San Diego, CA, USA) to the assay plates. The assay plates were then incubated at 37 masculineC for a minimum 48 hr. Three microL of Cell Titer Glo solution was added to the plates and incubated at RT in dark for 30 min. Luminescence was read using ViewLux (Perkin Elmer) with 1 sec exposure slow speed, high gain and 2x binning.
Regarding `COc1c(O)cc2c(c1OC)-c1ccc(SC)c(=O)cc1C(NC(C)=O)CC2` (stereo not drawn), the Potency is active: 116 nM. Consider `COc1cc2c(c(OC)c1OC)-c1ccc(SC)c(=O)cc1C(NC(C)=O)CC2` (stereo not drawn), for which the Potency was active: 18.4 nM. The result for `COc1c(O)cc2c(c1OC)-c1ccc(OC)c(=O)cc1C(NC(C)=O)CC2` (stereo not drawn) reads active: 146 nM.
